Results on 14 compounds are retold here after the odorant receptor screen of Mainland et al. (2015).

“And” between values parts separate entries of the source, which are not always exact repeats. Equal values may be shown once. The list shows a part of the results. Single wells; the ratio to wells without odorant was worked out here, and repeats agree poorly.

Among the test systems are OR5M1 S282T clone 1208; OR5M10 V69L clone 1125; OR5M11 clone 1236; OR5M8 clone 1523; OR5M9 clone 1194; OR5P2 clone 1185; OR5P3 clone 1115; OR5R1 clone 1162; OR5T1 clone 1249; OR5T1 clone 1399.
What all share (test): odorant receptor activation (CRE luciferase / Renilla) (fold of no-odor wells); higher = more activation
What all share (settings): 100 µM

Regarding `CCCCCC(=O)O` [caproic acid], the odorant receptor activation in the assay on OR5M1 S282T clone 1208 turned out to be 1.39; in the assay on OR5M10 V69L clone 1125, 0.807; in the assay with OR5M11 clone 1236, 0.961; in the assay with OR5M8 clone 1523, 1.02; in the assay on OR5M9 clone 1194, 1.21; in the assay on OR5P2 clone 1185, 1.12. For the same compound, the odorant receptor activation with OR5P3 clone 1115 stood at 0.807; in the assay with OR5R1 clone 1162 it was 1.13; in the assay on OR5T1 clone 1249, 0.844; in the assay with OR5T1 clone 1399, 0.197.

In the case of `CCCCCC(C)=O` [2-heptanone], the odorant receptor activation with OR5M1 S282T clone 1208 is 1.03; with OR5M8 clone 1523, 0.563 and 0.704; with OR5M9 clone 1194, 0.79; with OR5P2 clone 1185, 0.738; in the assay with OR5P3 clone 1115, 0.874; in the assay with OR5R1 clone 1162 it was 1.24. In addition, the odorant receptor activation amounted to 1.05 with OR5T1 clone 1249 and 0.891 in the assay with OR5T1 clone 1399.

With `CCCCO` [1-butanol], the odorant receptor activation with OR5M1 S282T clone 1208 came out at 0.862; in the assay with OR5M10 V69L clone 1125 it was 0.87; in the assay on OR5M11 clone 1236, 0.931; in the assay with OR5M8 clone 1523, 1.25; with OR5M9 clone 1194, 1.08; with OR5P2 clone 1185, 0.791. For the same compound, the odorant receptor activation in the assay on OR5P3 clone 1115 came out at 5.38; with OR5R1 clone 1162, 1.02; with OR5T1 clone 1249 it was 1.17; in the assay on OR5T1 clone 1399 it was 0.948.

As to `CC1=CCC(C(C)(C)O)CC1` (configuration not stated) [terpineol], the odorant receptor activation is 0.736 with OR5M1 S282T clone 1208; 0.866 with OR5M10 V69L clone 1125; 0.886 in the assay with OR5M11 clone 1236; 0.888 in the assay with OR5M8 clone 1523; 1.1 in the assay on OR5M9 clone 1194; 1.28 in the assay on OR5P2 clone 1185. The odorant receptor activation in the assay with OR5P3 clone 1115 came to 1.76; with OR5R1 clone 1162 it was 1.18; with OR5T1 clone 1249, 0.744; in the assay on OR5T1 clone 1399, 1.25.

On to `COC(=O)c1ccccc1` [methyl benzoate], for which the odorant receptor activation with OR5M1 S282T clone 1208 was 0.704; with OR5M8 clone 1523, 0.753 and 1.14; in the assay with OR5M9 clone 1194, 0.837; in the assay with OR5P2 clone 1185, 0.408; in the assay with OR5P3 clone 1115 it was 4.71; in the assay with OR5R1 clone 1162, 0.743. Moreover, the results for the odorant receptor activation in the assay on OR5T1 clone 1249 and with OR5T1 clone 1399 were 0.253 and 0.804, respectively.

On to `CC1=NC(C)SC1C` (configuration not stated), for which the odorant receptor activation is 0.705 in the assay on OR5M1 S282T clone 1208; 0.755 and 1.14 with OR5M8 clone 1523; 0.649 in the assay on OR5M9 clone 1194; 0.611 in the assay with OR5P2 clone 1185; 1.05 in the assay on OR5P3 clone 1115; 0.579 in the assay on OR5R1 clone 1162. Moreover, the odorant receptor activation turned out to be 1.09 in the assay with OR5T1 clone 1249 and 0.956 in the assay on OR5T1 clone 1399.

As for `C=C(C)C1CCC2=CC(=O)CC(C)C2(C)C1` (configuration not stated) [amyl laurate], the odorant receptor activation is 2.15 in the assay on OR5M10 V69L clone 1125 and 0.887 in the assay with OR5M11 clone 1236.

For the compound `CC12C=CCC1C1CCC3=CC(=O)CCC3(C)C1CC2` (configuration not stated) [androstadienone], the odorant receptor activation in the assay on OR5M1 S282T clone 1208 is 1.14; in the assay with OR5M8 clone 1523, 0.899 and 1.31; in the assay on OR5M9 clone 1194 it was 1.17; with OR5P2 clone 1185, 1.08; in the assay on OR5P3 clone 1115, 1.16; with OR5R1 clone 1162, 0.983. The odorant receptor activation was 0.991 and 1.17 in the assay with OR5T1 clone 1249; 0.865 in the assay on OR5T1 clone 1399.

On to `CC(C)(O)CCCC1=CCC(C=O)CC1` (configuration not stated) [lyral], for which the odorant receptor activation came out at 0.99 with OR5M10 V69L clone 1125 and 0.989 in the assay with OR5M11 clone 1236.

Turning to `CCCC(=O)O` [butyric acid], the odorant receptor activation with OR5M1 S282T clone 1208 worked out at 1.3; in the assay on OR5M10 V69L clone 1125, 1.05; in the assay on OR5M11 clone 1236, 0.877; in the assay on OR5M8 clone 1523 it was 1.18; with OR5M9 clone 1194, 1.23; in the assay on OR5P2 clone 1185, 1.36. Moreover, the odorant receptor activation worked out at 1.05 in the assay on OR5P3 clone 1115, 1.03 in the assay on OR5R1 clone 1162, 1.07 with OR5T1 clone 1249 and 0.21 in the assay on OR5T1 clone 1399.

As for `O=C1CCCCC1` [Cyclohexanone], the odorant receptor activation with OR5M1 S282T clone 1208 was 0.614; with OR5M8 clone 1523 it was 0.733 and 1.01; in the assay with OR5M9 clone 1194, 0.675; with OR5P2 clone 1185, 0.688; with OR5P3 clone 1115, 1.2; in the assay on OR5R1 clone 1162 it was 0.681. The odorant receptor activation in the assay with OR5T1 clone 1249 was 0.164; with OR5T1 clone 1399 it was 0.724.

As for `O=C1CCCCCCCCCCCC(=O)OCCO1` [ethylene brassylate], the odorant receptor activation with OR5M1 S282T clone 1208 stood at 1.81; with OR5M10 V69L clone 1125, 1.24; with OR5M11 clone 1236, 1; in the assay with OR5M8 clone 1523 it was 1.16; in the assay on OR5M9 clone 1194 it was 1.77; in the assay on OR5P2 clone 1185, 3.01. For the same compound, the odorant receptor activation came to 2.02 in the assay with OR5P3 clone 1115, 2.04 with OR5R1 clone 1162, 1.73 in the assay on OR5T1 clone 1249 and 1.32 in the assay on OR5T1 clone 1399.

`CC(C)(C)c1ccc(CCC=O)cc1` [bourgeonal]: the odorant receptor activation in the assay with OR5M1 S282T clone 1208 worked out at 0.778; in the assay with OR5M8 clone 1523, 1.07; in the assay with OR5M9 clone 1194, 0.732; in the assay on OR5P2 clone 1185, 0.879; in the assay with OR5P3 clone 1115, 1.2; with OR5R1 clone 1162, 0.861. The odorant receptor activation in the assay on OR5T1 clone 1249 stood at 0.654; in the assay on OR5T1 clone 1399, 0.179.

Consider `CC(C)C(=O)O` [isobutyric acid], for which the odorant receptor activation in the assay on OR5M1 S282T clone 1208 is 1.11; in the assay on OR5M10 V69L clone 1125 it was 0.574; in the assay with OR5M11 clone 1236, 1.02; with OR5M8 clone 1523 it was 0.818 and 0.813; in the assay on OR5M9 clone 1194, 1.03; in the assay with OR5P2 clone 1185 it was 0.913. Further, the odorant receptor activation with OR5P3 clone 1115 was 0.704; with OR5R1 clone 1162 it was 1.08; in the assay on OR5T1 clone 1249 it was 1.01 and 1.3; with OR5T1 clone 1399, 0.797.
